The source of these data is article PMC7810883, “Phosphorylation-induced changes in the PDZ domain of Dishevelled 3” (Scientific Reports, 2021).

No constants are given. Whether binding was seen depends on the method and setting. Some entries that bind do so weakly or less than the wild type.

Assay [1] concerns the target T1, PDZ domain of human Dishevelled 3 (DVL3), aa 243-338, S263E (human) (UniProt Q92997).
T1 sequence: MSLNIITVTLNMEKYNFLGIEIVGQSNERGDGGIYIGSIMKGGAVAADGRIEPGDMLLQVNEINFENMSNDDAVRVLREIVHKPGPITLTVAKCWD
Briefly: NMR titration; 1H-15N HSQC of 100 uM 15N-labelled PDZ wt/mutant with increasing amounts of C-terminal peptide (stock 800 uM, up to four-fold over PDZ); 50 mM sodium-phosphate pH 6.5, 50 mM KCl; both purified.

Assay [2] concerns the target PDZ domain of human Dishevelled 3 (DVL3), aa 243-338, wild type (human) (UniProt Q92997). The experiment in a line: AUC; sedimentation velocity, 60000 rpm, 20 C, 25 uM and 100 uM PDZ wt, phosphate pH 6.5, 50 mM KCl; both purified.

Take RQSFRMAMGNPSEFFVDVM (peptide, UniProt Q92997 698-716, phosphoserine at 700 (pS700); uncapped) [C-terminal DVL peptide consisting of aa 698-716 from DVL3 with phosphorylated pS700]: the binding result in assay [1] was “binds weakly”.

B1: PDZ domain of human Dishevelled 3 (DVL3), aa 243-338, wild type (domain or fragment, UniProt Q92997 243-338)
chain: MSLNIITVTLNMEKYNFLGISIVGQSNERGDGGIYIGSIMKGGAVAADGRIEPGDMLLQVNEINFENMSNDDAVRVLREIVHKPGPITLTVAKCWD
B1: the binding entry in assay [2] was “no binding (tested: 25 and 100 uM)”.
